# Laboratory results reported in patent US9938249B2, “Anti-amyloid compounds containing benzofurazan” (Treventis Corporation, priority 2014, dated 2018).
# Chains of the proteins cited; added tags and fusions are not shown. Residues count along the entry.
# UniProt P05067, 672-711, species assumed: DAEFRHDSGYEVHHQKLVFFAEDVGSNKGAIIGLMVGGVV
# “And” between values parts separate entries of the source, which are not always exact repeats. Equal values may be shown once. The name of at least one read-out is uncertain.
# Molecular target: Aβ40 (Homo sapiens, UniProt P05067)
# Assay: ThT Aβ aggregation assay (kinetic Thioflavin T fluorescence)
# Assay type: biochemical
# Conditions: compound 5 μm (so in the source); 20 μM Aβ; DMSO control at 80 hr = 0% inhibition; number in parenthesis = compound ID 1027 in that experiment
# Protocol: Preparation of Aβ40 Stock Solutions
# Aβ40 (1.0 mg) was pre-treated in a 1.5 mL microfuge tube with HFIP (1 mL) and sonicated for 20 min to disassemble any pre-formed Aβ aggregates. The HFIP was removed with a stream of argon and the Aβ dissolved in Tris base (5.8 mL, 20 mM, pH ˜10). The pH was adjusted to 7.4 with concentrated HCl (˜10 μL) and the solution filtered using a syringe filter (0.2 μm) before being used.
# The kinetic ThT assay for Aβ aggregation is similar to that of Chalifour et al (Chalifour et al, 2003, J. Biol. Chem. 278:34874-81). […] Plates were covered with clear polystyrene lids and incubated at 37° C. in a Tecan Genios microplate reader. […]
# Fluorescence readings (λex=450 nm, λem=480 nm) were taken every 15 min., after first shaking at high intensity for 15 s and allowing to settle for 10 s before each reading. Active compounds attenuated the increase in fluorescence over time that occurred in controls. In FIGS. 1-7, the time this procedure was performed extended to 80 hours (rightmost part of X-axis), at which point fluorescence increase generally reached an asymptote. […] By repeating this procedure over several concentrations, a […] (IC50) can be measured, as is given in the table below for some compounds.
compound,measurement,value
"O=C(c1ccccc1)N1CCN(c2ccc([N+](=O)[O-])c(Nc3ccccc3)c2)CC1 [compound 1027, reference compound]",% inhib Thioflavin T Aβ 40 (5 μm),42% and 55.78%
